Measurements reported in publication PMC11923385, “Rational Design, Synthesis, and Biological Assessment of Potential Indole‐Capped HDAC6 Inhibitors for Gastric Cancer Suppression” (MedComm, 2025).

System: MFC cells
Assay type: in vivo
Conditions: 615 mice, oral 20 mg/kg once daily, 14 days
Protocol: Six-week-old 615 mice (male) were procured from SJA laboratory animals in Hunan, China, and acclimated to a pathogen-free environment for one week before the commencement of the experiment. Subsequently, 5 × 10^5 of gastric cancer cell MFC were subcutaneously administered into the right flank of the mice. Tumor volume was determined using the formula length × width^2/2. Upon reaching a tumor volume of 50-100 mm³, 24 mice were stratified into four groups and administered oral doses of 0, 10, or 20 mg/kg of compound 10n, as well as 20 mg/kg of SAHA, delivered once daily, separately. Following 14 days, the mice were euthanized, and their tumors and vital organs were dissected for analysis. Paraffin sections measuring 4 µm in thickness were subjected to deparaffinization and subsequently treated with 3% hydrogen peroxide to inhibit endogenous peroxidase activity. Following this, slides were prepared to prevent nonspecific antibody binding and were then exposed to primary antibodies targeting HDAC6, Ac-tubulin, Ki-67, and Tunnel. The mice involved in the study were maintained in specific pathogen-free environments, and the experimental procedures were approved by the Ethics Committee of the Zhengzhou University Health Science Centre. The animal experimentation ethics number is ZZU-URIB-2024-O-109. […]

In the case of `O=C(CCCCCCC(=O)Nc1ccccc1)NO` [SAHA, reference compound], the “tumor growth inhibition rate (TGI)” value is reported as 30.4%.
